Results deposited as PubChem BioAssay AID686943 (Drosophila RNAi Screening Center, 2013)
In all, the deposit lists about 23,000 reagents; this is an unselected part of those with a known target gene and a result. 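Extra replicates exist only for a retested subset of genes; insulin dose and duration not given; both raised and lowered dpERK matter.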 A plus sign joins genes that one reagent is predicted to hit. Further read-outs or replicates are left out here. Not stated in the record: the amount of reagent, the time to read-out.

Assay: 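Knockdowns that increase or decrease active ERK after insulin receptor stimulation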 (primary screen)
Cell system: Drosophila S2R+ haemocyte-like cells expressing YFP-tagged ERK (Rolled)
Reagents: long dsRNA against Drosophila genes
Challenge: insulin stimulation versus unstimulated cells; dose and duration not given
Detection: 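Antibody staining for doubly phosphorylated ERK divided by ERK-YFP signal, as plate z-scores, in insulin-treated and untreated cells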
Direction: replicate 1, z-score of dpERK with insulin: higher = more active ERK per ERK-YFP after insulin

replicate 1, z-score of dpERK with insulin, by predicted target and reagent
CG34353: DRSC14493 0.64; DRSC14517 0.49; DRSC14563 0.15; DRSC15837 0.05; DRSC22429 0.73
Sdr: DRSC15517 -0.19
CG14232: DRSC19588 0.87
CG11158: DRSC19389 0.27
e(y)2: DRSC19640 -0.23
CG17325 + CG42305: DRSC02602 0.26
CARPB: DRSC18437 -0.59; DRSC18438 0.74
spi: DRSC03618 -0.38
CG31815: DRSC01548 -0.05
grim: DRSC11352 -1.13
Rh4: DRSC11268 0.58
CG6329: DRSC06976 0.78
jumu: DRSC16651 0.8
CG7906: DRSC10928 -0.17
da: DRSC03517 -0.33
yem: DRSC14865 0.21; DRSC17097 -1.13
CG31373: DRSC16052 -1.09
NFAT: DRSC18991 -6.4; DRSC19393 0.26
CG33465: DRSC05587 -0.15
CG43191: DRSC05326 0.19
Sclp: DRSC19851 1.82
atos: DRSC07318 -0.28
HisCl1: DRSC14945 -0.08
Edg78E: DRSC11863 0.28
dlt: DRSC08705 -1.69
CG5447: DRSC15801 0.03
MED23 + CG3700: DRSC04406 -0.17; DRSC04407 -0.08
CG42268: DRSC10171 0.99; DRSC10702 0.52; DRSC21797 1.34
Vajk3: DRSC01883 -0.23
